In publication PMC12485048 one finds binding data, which are given here for one substance.

By UniProt entry, the sequences of proteins in these tests, tags left out.
UniProt P63087: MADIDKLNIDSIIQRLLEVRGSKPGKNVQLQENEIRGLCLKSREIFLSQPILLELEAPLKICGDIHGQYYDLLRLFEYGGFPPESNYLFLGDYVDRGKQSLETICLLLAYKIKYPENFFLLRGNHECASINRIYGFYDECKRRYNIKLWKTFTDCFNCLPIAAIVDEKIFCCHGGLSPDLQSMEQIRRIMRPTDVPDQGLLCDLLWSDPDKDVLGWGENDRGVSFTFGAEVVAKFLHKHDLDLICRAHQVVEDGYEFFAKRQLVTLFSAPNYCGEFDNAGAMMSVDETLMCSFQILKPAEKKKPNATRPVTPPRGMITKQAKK

This experiment addresses T1, SH3RF2 (mouse (endogenous in striatum)) (UniProt Q8BZT2).
T1 sequence: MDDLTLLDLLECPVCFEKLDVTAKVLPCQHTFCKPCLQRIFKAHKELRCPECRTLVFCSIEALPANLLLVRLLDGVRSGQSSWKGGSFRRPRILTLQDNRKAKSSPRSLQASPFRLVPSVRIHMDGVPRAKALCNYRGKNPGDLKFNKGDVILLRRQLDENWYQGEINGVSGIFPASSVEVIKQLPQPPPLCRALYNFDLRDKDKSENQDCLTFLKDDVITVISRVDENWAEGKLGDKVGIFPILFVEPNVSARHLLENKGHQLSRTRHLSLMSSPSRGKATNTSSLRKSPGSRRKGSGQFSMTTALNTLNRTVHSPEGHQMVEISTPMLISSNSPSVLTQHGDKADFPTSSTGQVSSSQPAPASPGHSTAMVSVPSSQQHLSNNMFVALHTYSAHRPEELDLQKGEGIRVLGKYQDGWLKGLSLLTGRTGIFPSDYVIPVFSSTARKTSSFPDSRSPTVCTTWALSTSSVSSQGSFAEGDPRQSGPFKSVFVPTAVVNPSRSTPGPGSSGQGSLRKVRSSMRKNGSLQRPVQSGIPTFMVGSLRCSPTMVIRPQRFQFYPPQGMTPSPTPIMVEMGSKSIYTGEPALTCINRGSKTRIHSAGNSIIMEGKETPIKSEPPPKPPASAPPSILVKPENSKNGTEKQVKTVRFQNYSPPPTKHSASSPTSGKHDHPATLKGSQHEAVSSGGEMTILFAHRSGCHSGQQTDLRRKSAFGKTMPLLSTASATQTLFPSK
The experiment in a line: co-IP; endogenous proteins in mouse striatum lysate (20 mM Tris-HCl pH 7.4, 50 mM NaCl, 0.5% NP-40, 10 mM HEPES, 0.5 mM EDTA); 2 μg primary antibody on Protein A/G or Protein G magnetic beads, lysate at 4 °C overnight; western blot; for CaMKII–PPP1CC, WT and Sh3rf2 KO striatum compared. In general terms: In western blotting, separated proteins are transferred to a membrane and probed.

These are yes or no findings as the source states them, for the method shown. Binding seen in cells or lysates may run through a third protein. Some binding calls cover weakened binding; strength is not graded here.

Regarding “PP1 catalytic subunit gamma (PPP1CC) (from UniProt P63087 1-323) (enzyme)”, the binding entry is “binds”.
